Measured values taken from PubChem BioAssay AID2685 (National Center for Advancing Translational Sciences (NCATS), 2010).
The other results are listed elsewhere or left out. Further columns of the screen follow, without active or inactive calls. The list favours compounds with an active or inconclusive main result. The note in brackets gives the kind of curve behind each potency; many fits are weak.

Assay: qHTS Assay for Lipid Storage Modulators in Drosophila S3 Cells;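 on cell number change: cells counted by Cell Tracker Red CMTPX staining in the red channel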
Conditions: BODIPY lipid droplet fluorescence, 18-24 h; for cell number change: measured here: cell count max response, cells fed with added oleic acid
In short: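 Laser-scanning cytometry quantifies lipid droplet accumulation (500–530 nm total intensity; droplet/cell object ratio) in oleic acid-fed (400 uM added) Drosophila S3 cells treated with a concentration series. 20 uM Triacsin C defined 100% inhibition.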

[1] = measured here: cell number channel AC50, cells fed with added oleic acid
[2] = measured here: lipid fluorescence (Fed channel) AC50, cells fed with added oleic acid

Structure (SMILES)	cell number change [%]	AC50 [1]	AC50 [2]
Cc1cc(C)n(C(=O)c2cccc([N+](=O)[O-])c2C)n1	-1.05	–	–
CSc1ccc2c(c1)N(CCC1CCCCN1C)c1ccccc1S2 (stereo not drawn)	-36.1	0.00651 µM [falling, full curve, poor fit]	9.2 µM [falling, partial curve]
COc1ccc(-n2nc(C#N)c(Cl)cc2=O)cc1	-59.8	29.1 µM [falling, single point]	29.1 µM [falling, single point]
O=C(NCc1cccc(Cl)c1)C1CCN(c2nnc(N3CCCC3=O)s2)CC1	24.5	–	0.651 µM [rising, full curve, poor fit]
COC(=O)c1ccc(OCC(O)CNC2CCCC2)cc1 (stereo not drawn)	13.6	–	29.1 µM [rising, single point]
COc1ccc(-c2nc(CN3CCC(C(=O)N4CCOCC4)CC3)c(C)o2)c(OC)c1	-13.3	–	–
COc1ccc(N(C)S(=O)(=O)c2cccc(C(=O)Nc3ccc(N4CCOCC4)cc3)c2)cc1	-27.3	–	3.66 µM [falling, full curve, poor fit]
CCCN(CC(=O)Nc1ccc(Cl)cc1Cl)C(=O)/C=C/c1cccc([N+](=O)[O-])c1	6.97	–	8.2 µM [rising, partial curve]
Oc1ccc(N=Nc2ccc(Br)cc2)c(O)c1	-40.8	–	20.6 µM [falling, partial curve]
O=C(/C(=N/O)n1cncn1)c1ccccc1Cl	-39.6	1.03 µM [falling, full curve]	–
O=C(O)c1ccccc1C(=O)N1CCc2c([nH]c3ccccc23)C1C(F)(F)F (stereo not drawn)	-28.9	–	29.1 µM [falling, single point]
CCOC(=O)c1c(NC(C)=O)sc2c1CCN(Cc1ccccc1)C2	-12.7	–	23.1 µM [falling, single point]
CCOC(=O)N1CCN(Cc2nc3cc(NC(=O)c4ccco4)ccc3n2C)CC1	18.4	–	–
CN(CC(=O)Nc1ccc(Cl)cc1F)C1CCS(=O)(=O)C1 (stereo not drawn)	-6.13	–	0.13 µM [rising, partial curve, poor fit]
Cn1nc(C(=O)N2CCN(c3ccc(Cl)cc3)CC2)c2c1-c1ccccc1S(=O)(=O)C2	–	–	29.1 µM [rising, single point]
O=C(CSc1nnc(-c2cccc(F)c2)o1)N1CCOCC1	-16.1	–	0.58 µM [falling, single point]
CCC(CC)C(=O)Oc1c(Sc2ccccc2[N+](=O)[O-])c(C)nn1C(C)(C)C	-24.7	–	20.6 µM [falling, single point]
CS(=O)(=O)NCCCNc1ccc(Cl)cc1[N+](=O)[O-]	1.98	–	29.1 µM [rising, single point]
CC(C)(C)NC(=O)CN(Cc1ccc2c(c1)OCO2)C(=O)CCC(=O)Nc1nccs1	20.2	–	32.6 µM [rising, single point]
O=C1c2ccccc2C(=O)N1CCCC(=O)N1CCc2ccccc21	66.4	0.82 µM [rising, full curve]	–
O=C(O)c1ccc(-c2ccccn2)s1	-31.4	16.4 µM [falling, single point]	16.4 µM [falling, single point]

Structure (SMILES)	cell number change [%]	AC50 [1]	AC50 [2]
Cc1ccc2[nH]cc(S(=O)(=O)c3ccc(C)c(C)c3)c(=O)c2c1	–	–	29.1 µM [rising, single point]
O=C(NNc1cccc(Cl)n1)Nc1cccc(Cl)c1	26.5	0.411 µM [rising, full curve, poor fit]	1.16 µM [rising, full curve]
COC(=O)c1ccc(Oc2nc(NC(C)C)nc(SC)n2)cc1	-14.3	–	–
c1ccc2c(Nc3nnc(-c4ccncc4)s3)cccc2c1	-12.4	–	–
CCOc1ccccc1NC(C)C(=O)Nc1cc(C(F)(F)F)ccc1N1CCOCC1 (stereo not drawn)	5.12	–	0.0326 µM [rising, full curve]
CCOc1ccc(NC(=O)CN(C)C(=O)/C=C/c2ccco2)cc1OCC	-11.7	–	–
CCOc1ccc(S(=O)(=O)NCCC(=O)NCC(c2ccc(OC)cc2)N2CCCCC2)cc1 (stereo not drawn)	-25	–	1.16 µM [falling, full curve, poor fit]
Cc1c(C(=O)N2CCN(Cc3ccc4c(c3)OCO4)CC2)sc2ncnc(N3CCN(c4ccccc4)CC3)c12	13.1	–	18.4 µM [rising, single point]
COC(=O)c1ccc(C2C(C(=O)c3ccc(C)o3)=C(O)C(=O)N2c2cc(C)on2)cc1 (stereo not drawn)	4.01	–	23.1 µM [rising, partial curve]
Cc1ccc(CCNC(=O)C2CCCN(S(=O)(=O)c3c(C)noc3/C=C/N(C)C)C2)cc1 (stereo not drawn)	6.06	–	0.731 µM [falling, full curve]
O=C(NCCC1CCCCN1S(=O)(=O)c1ccccc1)C(=O)Nc1ccc(F)cc1F (stereo not drawn)	-31	7.31 µM [falling, partial curve, poor fit]	–
O=C(OCN1C(=O)c2ccccc2C1=O)c1ccc(Cl)nc1	13.8	–	0.082 µM [falling, single point]
Cc1csc(NC(=O)CCn2c(=O)sc3ccccc32)n1	-16.3	–	4.11 µM [rising, partial curve, poor fit]
Cc1ccc(S(=O)(=O)N2CCN(c3nc(C(C)C)c4c(c3C#N)CC(C)(C)OC4)CC2)cc1	13.5	–	4.11 µM [rising, partial curve, poor fit]
Cc1nc(N2CCCCCC2)c2ccccc2n1	1.47	–	29.1 µM [rising, single point]
CCC(C)Sc1cc(-c2nc3ccccn3c2NC2CCCCC2)ccc1OC (stereo not drawn)	6.73	–	29.1 µM [rising, single point]
O=C(CCNC(=O)c1ccco1)Nc1ccc(SC(F)F)cc1	-11.1	–	32.6 µM [falling, single point]
CN1C(=O)C(CC(=O)Nc2ccc(F)cc2)N(Cc2cccs2)C1=S (stereo not drawn)	12.2	–	6.51 µM [falling, single point]
CC(C)c1ccc(NC(=O)NC(C)c2ccc3c(c2)OCO3)cc1 (stereo not drawn)	19.1	–	0.251 µM [rising, full curve, poor fit]
NNC(=S)Nc1ccc(Cl)cc1	3.08	0.00517 µM [falling, full curve, poor fit]	–
CCOc1ccccc1N(CC(=O)N(C)Cc1ccccc1)S(=O)(=O)c1ccccc1	19.5	–	0.231 µM [falling, full curve, poor fit]

Structure (SMILES)	cell number change [%]	AC50 [1]	AC50 [2]
COc1ccc(NC(=O)CN(c2cc(C)cc(C)c2)S(=O)(=O)c2c(C)n[nH]c2C)cc1	24.3	–	29.1 µM [rising, single point]
Cc1ccc(C)c(Cc2c(C)nc3c(C(=O)N4CCOCC4)cnn3c2C)c1	-37.3	29.1 µM [falling, single point]	–
FC(F)(F)c1cc(-c2cccs2)nc2nc(N3CCOCC3)sc12	-55.3	–	29.1 µM [falling, single point]
CC1Cc2cc(-c3csc(NC(=O)Cc4cccs4)n3)ccc2N1S(C)(=O)=O (stereo not drawn)	–	6.51 µM [rising, single point]	6.51 µM [rising, single point]
Cc1ccc(S(=O)(=O)N(C)CC(O)Cn2c3ccccc3c3ccccc32)cc1 (stereo not drawn)	-59.7	29.1 µM [falling, single point]	5.17 µM [rising, single point]
CC1(C)CC(=O)C2=C(C1)N(CCN1CCOCC1)C1=C(C(=O)CC(C)(C)C1)C2c1cccc(Cl)c1	22.2	–	0.103 µM [rising, full curve, poor fit]
COc1ccc(S(=O)(=O)N2CCC(NC(=O)OCc3c(Cl)cccc3Cl)CC2)cc1	54.9	20.6 µM [rising, partial curve]	–
N#Cc1nc(-c2ccc(OCc3ccccc3)cc2)oc1NCCCn1ccnc1	-32.2	9.2 µM [falling, partial curve]	0.651 µM [rising, single point]
O=C(O)c1ccc(N2CCCCC2)cc1O	2.69	–	0.146 µM [falling, full curve, poor fit]
CC(=O)c1cccc(N2Cc3ccccc3C2=NC(=O)CCl)c1	-50.7	–	–
CC1CCc2sc(C(=O)NNC(=S)NC3CC3)cc2C1 (stereo not drawn)	-10.3	–	0.731 µM [falling, full curve]
c1ccc2cc(CN3CCOCC3)ccc2c1	-22.3	0.82 µM [falling, full curve, poor fit]	0.731 µM [falling, full curve]
O=C(CN1C(=O)NC2(CCc3ccccc32)C1=O)c1c[nH]c2ccccc12 (stereo not drawn)	59.6	14.6 µM [rising, partial curve]	–
CC1(c2ccc3ccccc3c2)NC(=O)N(CC(=O)O)C1=O (stereo not drawn)	20.4	–	0.058 µM [falling, full curve]
O=C(CCCc1c[nH]c2ccccc12)N1CCOCC1	44.6	29.1 µM [rising, single point]	–
CC1(C)Cc2c(sc3nc(=S)[nH]c(N)c23)CO1	7.69	–	–
COc1cc(C)ccc1OCCOCCOc1ccccc1[N+](=O)[O-]	17	–	0.164 µM [rising, full curve, poor fit]
Cc1c(NC(=O)C2CCCN2S(=O)(=O)c2ccc(Cl)cc2)c(=O)n(-c2ccccc2)n1C (stereo not drawn)	18.6	–	–
CC(/C=N/NC(=O)c1cccc(F)c1)=C\c1ccccc1	20.4	–	22.4 µM [falling, single point]
